The list shows a part of the results. Most values lie at the level of the controls, where differences are scatter.
The targets below were run with CN[C@@H]1C[C@H]2O[C@@](C)([C@@H]1OC)n1c3ccccc3c3c4c(c5c6ccccc6n2c5c31)C(=O)NC4 [staurosporine] (assay: log2 fold change of tryptic peptide abundance, ligand vs vehicle (limited proteolysis) (log2 ratio); higher = more trypsin-susceptible (destabilized)). Conditions: ligand concentration: 20 uM; sample: K562 cleared lysate; digestion: 4 min, 22 C (HT-PELSA RT4min, Orbitrap Astral).

By UniProt entry, the sequences of proteins in these tests, tags left out. Where a name states a change or a piece, a line headed by the entry shows the natural chain unless it says otherwise.
UniProt Q9UKL3: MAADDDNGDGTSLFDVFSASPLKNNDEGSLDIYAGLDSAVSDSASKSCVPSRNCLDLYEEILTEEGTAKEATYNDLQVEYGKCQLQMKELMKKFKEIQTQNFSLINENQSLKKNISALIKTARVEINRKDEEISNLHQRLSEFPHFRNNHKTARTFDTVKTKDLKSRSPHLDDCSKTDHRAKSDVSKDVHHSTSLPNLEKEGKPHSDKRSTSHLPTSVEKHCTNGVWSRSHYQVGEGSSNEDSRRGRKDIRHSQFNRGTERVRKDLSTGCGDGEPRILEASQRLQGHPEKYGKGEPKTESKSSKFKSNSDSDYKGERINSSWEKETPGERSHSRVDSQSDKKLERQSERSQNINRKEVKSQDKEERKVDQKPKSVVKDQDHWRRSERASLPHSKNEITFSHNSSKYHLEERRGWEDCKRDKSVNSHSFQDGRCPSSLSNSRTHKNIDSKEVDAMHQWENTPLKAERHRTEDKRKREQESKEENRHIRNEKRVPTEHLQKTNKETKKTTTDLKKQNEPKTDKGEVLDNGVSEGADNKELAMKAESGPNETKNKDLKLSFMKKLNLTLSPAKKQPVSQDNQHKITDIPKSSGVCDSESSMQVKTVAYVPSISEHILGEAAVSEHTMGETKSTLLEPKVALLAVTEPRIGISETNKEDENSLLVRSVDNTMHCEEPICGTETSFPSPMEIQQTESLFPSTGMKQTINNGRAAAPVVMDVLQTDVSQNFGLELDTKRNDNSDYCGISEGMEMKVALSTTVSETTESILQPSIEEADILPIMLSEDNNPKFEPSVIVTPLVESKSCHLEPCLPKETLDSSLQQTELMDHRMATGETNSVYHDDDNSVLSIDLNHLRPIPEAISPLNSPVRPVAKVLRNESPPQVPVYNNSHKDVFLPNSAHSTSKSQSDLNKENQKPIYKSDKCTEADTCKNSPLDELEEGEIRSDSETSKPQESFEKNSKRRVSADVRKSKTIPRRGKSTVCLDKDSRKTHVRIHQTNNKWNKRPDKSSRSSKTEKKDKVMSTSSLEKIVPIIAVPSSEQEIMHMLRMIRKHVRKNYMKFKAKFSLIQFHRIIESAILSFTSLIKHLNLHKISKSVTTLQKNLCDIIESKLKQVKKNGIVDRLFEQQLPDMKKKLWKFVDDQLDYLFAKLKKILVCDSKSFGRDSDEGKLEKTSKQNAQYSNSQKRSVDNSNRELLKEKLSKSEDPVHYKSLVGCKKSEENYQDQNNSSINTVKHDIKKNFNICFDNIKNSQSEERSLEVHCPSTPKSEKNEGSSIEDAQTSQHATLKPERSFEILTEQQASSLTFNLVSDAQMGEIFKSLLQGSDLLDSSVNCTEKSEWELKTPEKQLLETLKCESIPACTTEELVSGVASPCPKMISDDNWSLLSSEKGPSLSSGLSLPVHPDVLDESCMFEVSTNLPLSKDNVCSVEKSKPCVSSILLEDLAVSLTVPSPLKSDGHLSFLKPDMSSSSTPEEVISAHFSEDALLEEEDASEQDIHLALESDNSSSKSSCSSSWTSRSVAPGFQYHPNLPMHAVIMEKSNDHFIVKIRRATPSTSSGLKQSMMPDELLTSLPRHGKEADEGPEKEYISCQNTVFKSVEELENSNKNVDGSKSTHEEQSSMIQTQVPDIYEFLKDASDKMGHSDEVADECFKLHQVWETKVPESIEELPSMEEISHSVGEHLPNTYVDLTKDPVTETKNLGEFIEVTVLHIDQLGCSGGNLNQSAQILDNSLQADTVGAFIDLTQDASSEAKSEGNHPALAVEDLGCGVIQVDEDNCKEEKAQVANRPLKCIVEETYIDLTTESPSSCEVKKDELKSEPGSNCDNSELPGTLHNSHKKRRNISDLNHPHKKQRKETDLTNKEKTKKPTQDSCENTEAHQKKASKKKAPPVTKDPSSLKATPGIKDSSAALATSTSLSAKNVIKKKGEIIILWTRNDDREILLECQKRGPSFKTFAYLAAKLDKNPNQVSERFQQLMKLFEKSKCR
UniProt Q9UKM9: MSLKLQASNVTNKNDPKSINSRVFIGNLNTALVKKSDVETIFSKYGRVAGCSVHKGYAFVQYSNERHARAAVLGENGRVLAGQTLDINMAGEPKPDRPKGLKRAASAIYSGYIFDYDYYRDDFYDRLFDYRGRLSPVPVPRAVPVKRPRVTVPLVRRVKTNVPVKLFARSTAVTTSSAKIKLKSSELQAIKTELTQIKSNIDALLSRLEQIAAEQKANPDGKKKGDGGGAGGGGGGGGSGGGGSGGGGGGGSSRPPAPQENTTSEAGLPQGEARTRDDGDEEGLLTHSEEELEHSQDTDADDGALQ
UniProt Q9UKT9: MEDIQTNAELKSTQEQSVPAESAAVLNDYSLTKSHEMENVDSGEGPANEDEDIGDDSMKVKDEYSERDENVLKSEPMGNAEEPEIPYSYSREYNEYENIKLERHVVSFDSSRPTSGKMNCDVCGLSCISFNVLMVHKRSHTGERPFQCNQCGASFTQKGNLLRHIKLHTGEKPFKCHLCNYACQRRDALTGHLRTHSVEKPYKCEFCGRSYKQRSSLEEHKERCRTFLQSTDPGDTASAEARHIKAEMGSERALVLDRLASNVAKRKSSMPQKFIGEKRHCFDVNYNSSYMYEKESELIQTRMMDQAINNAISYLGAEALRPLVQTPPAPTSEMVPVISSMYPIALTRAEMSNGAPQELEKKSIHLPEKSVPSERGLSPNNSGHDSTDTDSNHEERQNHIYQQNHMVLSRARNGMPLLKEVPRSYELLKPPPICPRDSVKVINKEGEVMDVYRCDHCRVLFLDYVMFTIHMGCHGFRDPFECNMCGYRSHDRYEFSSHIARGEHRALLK
UniProt Q9Y2K9: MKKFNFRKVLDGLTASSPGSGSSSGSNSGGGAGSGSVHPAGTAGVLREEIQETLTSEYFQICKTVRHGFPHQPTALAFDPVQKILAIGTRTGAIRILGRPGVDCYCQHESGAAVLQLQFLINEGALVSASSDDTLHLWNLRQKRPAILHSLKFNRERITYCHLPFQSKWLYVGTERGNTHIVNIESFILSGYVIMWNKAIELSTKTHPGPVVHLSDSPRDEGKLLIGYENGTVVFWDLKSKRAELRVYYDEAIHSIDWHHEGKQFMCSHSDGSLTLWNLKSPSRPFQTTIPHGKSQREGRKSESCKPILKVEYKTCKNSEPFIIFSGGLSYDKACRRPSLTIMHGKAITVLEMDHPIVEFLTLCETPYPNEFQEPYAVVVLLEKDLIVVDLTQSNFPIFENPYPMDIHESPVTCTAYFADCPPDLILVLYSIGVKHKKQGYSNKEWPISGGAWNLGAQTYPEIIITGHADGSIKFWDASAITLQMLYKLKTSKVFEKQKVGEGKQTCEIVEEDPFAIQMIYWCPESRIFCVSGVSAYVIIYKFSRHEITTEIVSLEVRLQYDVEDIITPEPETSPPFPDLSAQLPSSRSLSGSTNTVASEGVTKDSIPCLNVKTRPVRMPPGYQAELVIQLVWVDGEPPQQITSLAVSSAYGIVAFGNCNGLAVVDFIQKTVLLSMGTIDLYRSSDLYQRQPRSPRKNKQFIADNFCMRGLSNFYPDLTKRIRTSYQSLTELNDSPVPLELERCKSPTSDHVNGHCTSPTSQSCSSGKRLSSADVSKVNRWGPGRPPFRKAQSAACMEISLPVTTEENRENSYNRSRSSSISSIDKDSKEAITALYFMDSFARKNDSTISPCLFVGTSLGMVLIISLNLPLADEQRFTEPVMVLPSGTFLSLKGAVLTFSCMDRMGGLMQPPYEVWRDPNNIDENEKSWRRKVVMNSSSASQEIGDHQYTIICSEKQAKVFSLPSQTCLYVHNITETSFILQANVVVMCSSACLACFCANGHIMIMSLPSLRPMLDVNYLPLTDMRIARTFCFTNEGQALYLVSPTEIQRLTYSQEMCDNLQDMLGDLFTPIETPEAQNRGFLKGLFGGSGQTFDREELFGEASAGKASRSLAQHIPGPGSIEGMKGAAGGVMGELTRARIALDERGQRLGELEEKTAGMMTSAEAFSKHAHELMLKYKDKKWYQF
UniProt Q9UKI2, whole entry: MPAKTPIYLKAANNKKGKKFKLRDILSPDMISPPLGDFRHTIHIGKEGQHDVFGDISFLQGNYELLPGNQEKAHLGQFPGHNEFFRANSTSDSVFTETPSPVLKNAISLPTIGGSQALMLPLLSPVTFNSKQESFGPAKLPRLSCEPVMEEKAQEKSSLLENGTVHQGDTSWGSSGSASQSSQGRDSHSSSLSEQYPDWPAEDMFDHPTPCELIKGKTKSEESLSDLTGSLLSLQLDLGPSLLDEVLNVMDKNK
UniProt Q9ULH0: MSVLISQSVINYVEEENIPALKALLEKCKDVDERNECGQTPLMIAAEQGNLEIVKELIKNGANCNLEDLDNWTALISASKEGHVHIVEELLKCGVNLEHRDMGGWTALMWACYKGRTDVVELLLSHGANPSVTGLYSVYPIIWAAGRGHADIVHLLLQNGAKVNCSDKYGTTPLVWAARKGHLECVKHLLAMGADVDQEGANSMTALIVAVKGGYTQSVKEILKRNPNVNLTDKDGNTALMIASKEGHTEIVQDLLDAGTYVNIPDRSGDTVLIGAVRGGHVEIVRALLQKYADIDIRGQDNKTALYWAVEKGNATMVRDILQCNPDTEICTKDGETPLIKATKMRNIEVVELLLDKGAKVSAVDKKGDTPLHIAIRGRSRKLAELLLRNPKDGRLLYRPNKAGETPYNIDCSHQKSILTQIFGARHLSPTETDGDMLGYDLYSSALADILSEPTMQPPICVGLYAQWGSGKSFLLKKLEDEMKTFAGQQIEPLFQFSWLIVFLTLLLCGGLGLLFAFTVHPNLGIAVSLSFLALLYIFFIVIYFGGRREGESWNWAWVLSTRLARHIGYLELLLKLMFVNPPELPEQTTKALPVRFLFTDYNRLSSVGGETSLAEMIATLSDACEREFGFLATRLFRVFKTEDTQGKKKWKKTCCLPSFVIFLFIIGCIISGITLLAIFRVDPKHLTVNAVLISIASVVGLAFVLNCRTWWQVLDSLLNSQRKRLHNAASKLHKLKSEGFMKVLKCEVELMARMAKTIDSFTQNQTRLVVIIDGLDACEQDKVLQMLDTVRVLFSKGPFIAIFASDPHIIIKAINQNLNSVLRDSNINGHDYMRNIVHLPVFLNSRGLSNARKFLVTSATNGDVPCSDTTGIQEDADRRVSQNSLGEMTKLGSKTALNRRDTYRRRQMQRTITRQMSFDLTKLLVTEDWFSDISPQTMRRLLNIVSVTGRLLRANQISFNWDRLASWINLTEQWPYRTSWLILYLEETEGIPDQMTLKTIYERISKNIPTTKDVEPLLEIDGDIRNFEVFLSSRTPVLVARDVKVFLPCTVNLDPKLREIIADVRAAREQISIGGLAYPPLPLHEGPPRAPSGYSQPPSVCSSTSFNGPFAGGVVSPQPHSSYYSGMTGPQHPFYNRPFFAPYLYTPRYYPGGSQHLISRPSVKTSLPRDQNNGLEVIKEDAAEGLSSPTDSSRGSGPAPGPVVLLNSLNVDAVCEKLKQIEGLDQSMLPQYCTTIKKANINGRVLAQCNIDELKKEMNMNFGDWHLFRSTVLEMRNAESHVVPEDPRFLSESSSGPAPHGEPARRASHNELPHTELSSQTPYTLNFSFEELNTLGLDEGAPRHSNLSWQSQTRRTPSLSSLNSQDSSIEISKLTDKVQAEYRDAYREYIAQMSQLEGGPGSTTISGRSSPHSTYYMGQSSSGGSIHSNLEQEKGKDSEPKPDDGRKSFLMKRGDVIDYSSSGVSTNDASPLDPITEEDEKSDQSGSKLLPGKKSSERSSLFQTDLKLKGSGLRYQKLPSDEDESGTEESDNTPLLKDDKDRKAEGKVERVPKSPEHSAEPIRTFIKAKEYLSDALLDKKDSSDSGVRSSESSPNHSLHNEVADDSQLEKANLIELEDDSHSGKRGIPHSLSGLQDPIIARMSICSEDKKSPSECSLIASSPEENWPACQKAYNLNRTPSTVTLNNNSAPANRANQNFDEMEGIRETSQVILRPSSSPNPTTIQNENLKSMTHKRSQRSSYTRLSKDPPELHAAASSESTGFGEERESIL
UniProt Q9Y2S7: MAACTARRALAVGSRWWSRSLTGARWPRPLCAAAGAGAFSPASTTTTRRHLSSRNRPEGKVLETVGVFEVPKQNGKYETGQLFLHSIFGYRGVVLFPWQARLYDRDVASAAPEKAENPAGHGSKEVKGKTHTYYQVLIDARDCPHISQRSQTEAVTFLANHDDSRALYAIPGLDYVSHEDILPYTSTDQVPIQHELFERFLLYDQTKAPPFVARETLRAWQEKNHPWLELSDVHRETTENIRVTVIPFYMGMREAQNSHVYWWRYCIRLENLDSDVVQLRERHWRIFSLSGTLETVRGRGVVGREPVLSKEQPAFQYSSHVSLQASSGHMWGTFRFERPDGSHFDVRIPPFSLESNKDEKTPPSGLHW

Row | Target | log2 fold change
1 | NUDC (peptide sequence: GKDMVVDIQRR, peptide start residue: 195) (UniProt Q9Y266) | 0.525
2 | SLC5A6 (peptide sequence: SYGQDHLDTGLFPEKPR, peptide start residue: 585) (UniProt Q9Y289) | 0.0868
3 | GMEB2 (peptide sequence: FVCPGINVK, peptide start residue: 111) (UniProt Q9UKD1) | 0.109
4 | MRPS33 (peptide sequence: LFGEVTRPTNSK, peptide start residue: 18) (UniProt Q9Y291) | -0.319
5 | VPS4A (peptide sequence: FSEDFGQES, peptide start residue: 429) (UniProt Q9UN37) | -0.348
6 | MAST1 (peptide sequence: DLKPDNLLITSMGHIK, peptide start residue: 635) (UniProt Q9Y2H9) | -0.406
7 | REXO2 (peptide sequence: IIENGENEK, peptide start residue: 226) (UniProt Q9Y3B8) | -0.0834
8 | CASP8AP2 (peptide sequence: DVFLPNSAHSTSK, peptide start residue: 888) (UniProt Q9UKL3) | -0.426
9 | RALY (peptide sequence: LQASNVTNKNDPK, peptide start residue: 5) (UniProt Q9UKM9) | -0.206
10 | UniProt Q9UKT9 (peptide sequence: SSLEEHKER, peptide start residue: 214) | 0.618
11 | STUB1 (peptide sequence: VGHFDPVTR, peptide start residue: 264) (UniProt Q9UNE7) | 0.168
12 | STXBP5L (peptide sequence: HAHELMLK, peptide start residue: 1170) (UniProt Q9Y2K9) | 0.358
13 | ZC3H4 (peptide sequence: SQLQQFSHIK, peptide start residue: 954) (UniProt Q9UPT8) | -0.339
14 | SLC12A4 (peptide sequence: GIDYYDR, peptide start residue: 58) (UniProt Q9UP95) | -0.18
15 | CEP164 (peptide sequence: IDSTPSLTSR, peptide start residue: 1250) (UniProt Q9UPV0) | -0.39
16 | UniProt Q9Y2I7 (peptide sequence: LQDLFQQEK, peptide start residue: 1508) | -0.431
17 | FBXO4 (peptide sequence: QIDGIGSGVNFQLNNQHK, peptide start residue: 213) (UniProt Q9UKT5) | -0.0764
18 | CDC42EP3 (peptide sequence: LSCEPVMEEK, peptide start residue: 143) (UniProt Q9UKI2) | 0.329
19 | FBXO3 (peptide sequence: LVVPGLLGSMALSNHYR, peptide start residue: 154) (UniProt Q9UK99) | -0.0795
20 | UBE2J1 (peptide sequence: LSTSPDVIQGHQPR, peptide start residue: 265) (UniProt Q9Y385) | -0.156
21 | AGAP1 (peptide sequence: RSNLFTSR, peptide start residue: 314) (UniProt Q9UPQ3) | 0.628
22 | MEMO1 (peptide sequence: NWQDSSVSYAAGALTVH, peptide start residue: 281) (UniProt Q9Y316) | 0.215
23 | USP22 (peptide sequence: HLAGYEQQDAHEFLIAALDVLHR, peptide start residue: 254) (UniProt Q9UPT9) | 0.217
24 | EXOC7 (peptide sequence: SYREHIEQQIQTYQR, peptide start residue: 607) (UniProt Q9UPT5) | 0.306
25 | ZNF346 (peptide sequence: TVASSLGQIPMQR, peptide start residue: 270) (UniProt Q9UL40) | -0.241
26 | MTO1 (peptide sequence: LKIEATYESVLFHQLQEIK, peptide start residue: 607) (UniProt Q9Y2Z2) | 0.268
27 | KIDINS220 (peptide sequence: NIEVVELLLDKGAK, peptide start residue: 347) (UniProt Q9ULH0) | 0.511
28 | POLDIP2 (peptide sequence: VLETVGVFEVPK, peptide start residue: 61) (UniProt Q9Y2S7) | -0.249

In a second layout: results already given.
Row	Target	log2 fold change
25	ZNF346 (peptide sequence: TVASSLGQIPMQR, peptide start residue: 270) (UniProt Q9UL40)	-0.241
26	MTO1 (peptide sequence: LKIEATYESVLFHQLQEIK, peptide start residue: 607) (UniProt Q9Y2Z2)	0.268

Source: the supplement of paper PMC12819154, “High-throughput peptide-centric local stability assay extends protein–ligand identification to membrane proteins, tissues and bacteria” (Nature Structural & Molecular Biology, 2025)
